Experimental data: publication PMC5103071
These are yes or no findings as the source states them, for the method shown. Binding seen in cells or lysates may run through a third protein. Some results given as binding are weak or reduced against the parent protein; the word gives no strength. Tags and fused reporters may be left off the sequences shown.

Chains of the proteins cited; added tags and fusions are not shown. Lines headed by an entry give the natural chain unless they say otherwise; changes in a name come on top. A line that says so, or that is headed by a name, gives the form on record, which may keep a tag or linker.
myc–PIAS2α (O75928-2, form named): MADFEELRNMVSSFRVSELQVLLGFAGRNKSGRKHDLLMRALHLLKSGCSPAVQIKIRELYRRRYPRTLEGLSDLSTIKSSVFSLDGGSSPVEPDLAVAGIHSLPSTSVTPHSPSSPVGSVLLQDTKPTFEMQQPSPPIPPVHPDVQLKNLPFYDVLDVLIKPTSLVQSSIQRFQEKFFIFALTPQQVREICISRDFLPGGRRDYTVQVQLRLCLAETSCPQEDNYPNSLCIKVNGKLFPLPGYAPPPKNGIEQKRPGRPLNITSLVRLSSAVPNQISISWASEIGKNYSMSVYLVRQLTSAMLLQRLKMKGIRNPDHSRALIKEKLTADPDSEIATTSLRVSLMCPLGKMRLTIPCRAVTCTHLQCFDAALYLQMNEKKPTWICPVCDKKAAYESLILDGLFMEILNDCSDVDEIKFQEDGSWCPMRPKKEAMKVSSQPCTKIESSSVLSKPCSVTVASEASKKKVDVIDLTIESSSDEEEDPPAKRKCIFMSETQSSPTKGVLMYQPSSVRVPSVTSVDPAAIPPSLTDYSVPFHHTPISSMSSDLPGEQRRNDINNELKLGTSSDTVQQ

Molecular target: T1, FLAG–gephyrin (rat) (UniProt Q03555)
T1 sequence: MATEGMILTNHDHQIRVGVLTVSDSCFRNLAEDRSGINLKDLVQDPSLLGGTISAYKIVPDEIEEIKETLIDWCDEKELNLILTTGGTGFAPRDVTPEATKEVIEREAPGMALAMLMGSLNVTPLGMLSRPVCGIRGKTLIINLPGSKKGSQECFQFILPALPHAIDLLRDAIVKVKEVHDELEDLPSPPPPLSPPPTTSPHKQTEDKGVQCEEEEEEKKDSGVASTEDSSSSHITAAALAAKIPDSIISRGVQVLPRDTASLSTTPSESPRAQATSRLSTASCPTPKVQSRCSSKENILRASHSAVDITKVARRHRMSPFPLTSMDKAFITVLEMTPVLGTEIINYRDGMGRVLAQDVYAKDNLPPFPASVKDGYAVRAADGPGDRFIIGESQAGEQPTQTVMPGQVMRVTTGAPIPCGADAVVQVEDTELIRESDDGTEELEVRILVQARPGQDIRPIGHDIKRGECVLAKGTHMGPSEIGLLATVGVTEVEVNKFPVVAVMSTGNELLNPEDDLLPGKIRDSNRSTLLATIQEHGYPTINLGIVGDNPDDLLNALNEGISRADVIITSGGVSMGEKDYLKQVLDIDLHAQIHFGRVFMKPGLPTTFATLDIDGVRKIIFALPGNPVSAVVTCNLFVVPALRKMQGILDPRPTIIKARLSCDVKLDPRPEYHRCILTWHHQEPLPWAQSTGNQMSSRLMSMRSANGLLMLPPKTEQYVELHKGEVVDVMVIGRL
Assay: co-IP; FLAG–gephyrin and myc–PIAS co-expressed in HEK293 cells; IP with anti-FLAG antibody, WB for myc; protein G agarose, washes in high-salt buffer and EBC buffer (50 mM Tris pH 8.0, 120 mM NaCl, 0.5% NP-40)

- binding: binds
Substance: myc–PIAS2α (from UniProt O75928-2 1-572)
